{"source": "patent US12594292B2", "about": "“Antiviral prodrugs, intermediate-and long-acting formulations and methods” (priority 2022, dated 2026)", "key": {"[1]": {"system": "SARS-CoV-2 isolate USA-WA1/2020", "assay": "SARS-CoV-2 infection in Huh7.5 cells, qRT-PCR (Example 7)", "assay_type": "cell-based", "settings": "MOI 0.01, 48 hours"}, "[2]": {"system": "SARS-CoV-2 isolate USA-WA1/2020", "assay": "SARS-CoV-2 infection in Calu-3 cells, qRT-PCR (Example 7)", "assay_type": "cell-based", "settings": "MOI 0.01, 48 hours"}, "[3]": {"system": "SARS-CoV-2 isolate USA-WA1/2020", "assay": "SARS-CoV-2 infection in PSC-human lung cells, qRT-PCR (Example 7)", "assay_type": "cell-based", "settings": "MOI 0.01, 48 hours, listed as ODE-P-RVn"}, "MRC-5 cells": {"system": "MRC-5 cells", "settings": "72 hours"}, "SARS CoV-2": {"system": "SARS CoV-2", "settings": "three daily intravenous infusions prior to hospitalization; cited from earlier work"}}, "note": "For at least one compound, name, drawing or mass did not settle the structure. Some entries share one result that the patent states for a list of compounds.", "data": [{"smiles": "CCCCCCCCCCCCCCCCOCCCOP(=O)(O)OC[C@H]1O[C@@](C#N)(c2ccc3c(N)ncnn23)[C@H](O)[C@@H]1O", "note": "[Compound 4b, 3-(Hexadecyloxy)propyl-phospho-RVn]", "values": [{"measurement": "EC50", "setting": "[1]; listed as HDP-P-RVn", "value": "< 200", "unit": "nM"}]}, {"smiles": "CCCCCCCCCCCCCCCCCCOCCOP(=O)(O)OC[C@H]1O[C@@](C#N)(c2ccc3c(N)ncnn23)[C@H](O)[C@@H]1O", "note": "[Compound 4c, 2-(Octadecyloxy)ethyl-phospho-RVn]", "values": [{"measurement": "EC50", "setting": "[1]; listed as ODE-P-RVn", "value": "< 200", "unit": "nM"}, {"measurement": "EC50", "setting": "[2]; listed as ODE-P-RVn", "value": "< 350", "unit": "nM"}, {"measurement": "EC50", "setting": "[3]", "value": "< 350", "unit": "nM"}]}, {"smiles": "CCCCCCCCCCCCCCCCCCOC[C@H](COP(=O)(O)OC[C@H]1O[C@@](C#N)(c2ccc3c(N)ncnn23)[C@H](O)[C@@H]1O)OCc1ccccc1", "note": "[Compound 15d, 1-O-octadecyl-2-O-benzyl-sn-glyceryl-phospho-RVn]", "values": [{"measurement": "EC50", "setting": "[1]; listed as ODBG-P-RVn", "value": "< 200", "unit": "nM"}, {"measurement": "CC50", "setting": "MRC-5 cells", "value": "> 50000", "unit": "nM"}, {"measurement": "EC50", "setting": "[2]; listed as ODBG-P-RVn", "value": "< 350", "unit": "nM"}]}, {"smiles": "CCC(CC)COC(=O)[C@H](C)N[P@](=O)(OC[C@H]1O[C@@](C#N)(c2ccc3c(N)ncnn23)[C@H](O)[C@@H]1O)Oc1ccccc1", "note": "[RDV, Remdesivir, reference compound]", "values": [{"measurement": "reduction of hospitalization or death", "setting": "SARS CoV-2", "value": "85-90%"}]}]}
